Laboratory results: paper PMC11417401
No constants are given. Whether binding was seen depends on the method and setting. In cells and extracts the contact can be indirect. Some binding calls cover weakened binding; strength is not graded here.

Chains of the proteins cited; added tags and fusions are not shown.
UniProt Q7Z333: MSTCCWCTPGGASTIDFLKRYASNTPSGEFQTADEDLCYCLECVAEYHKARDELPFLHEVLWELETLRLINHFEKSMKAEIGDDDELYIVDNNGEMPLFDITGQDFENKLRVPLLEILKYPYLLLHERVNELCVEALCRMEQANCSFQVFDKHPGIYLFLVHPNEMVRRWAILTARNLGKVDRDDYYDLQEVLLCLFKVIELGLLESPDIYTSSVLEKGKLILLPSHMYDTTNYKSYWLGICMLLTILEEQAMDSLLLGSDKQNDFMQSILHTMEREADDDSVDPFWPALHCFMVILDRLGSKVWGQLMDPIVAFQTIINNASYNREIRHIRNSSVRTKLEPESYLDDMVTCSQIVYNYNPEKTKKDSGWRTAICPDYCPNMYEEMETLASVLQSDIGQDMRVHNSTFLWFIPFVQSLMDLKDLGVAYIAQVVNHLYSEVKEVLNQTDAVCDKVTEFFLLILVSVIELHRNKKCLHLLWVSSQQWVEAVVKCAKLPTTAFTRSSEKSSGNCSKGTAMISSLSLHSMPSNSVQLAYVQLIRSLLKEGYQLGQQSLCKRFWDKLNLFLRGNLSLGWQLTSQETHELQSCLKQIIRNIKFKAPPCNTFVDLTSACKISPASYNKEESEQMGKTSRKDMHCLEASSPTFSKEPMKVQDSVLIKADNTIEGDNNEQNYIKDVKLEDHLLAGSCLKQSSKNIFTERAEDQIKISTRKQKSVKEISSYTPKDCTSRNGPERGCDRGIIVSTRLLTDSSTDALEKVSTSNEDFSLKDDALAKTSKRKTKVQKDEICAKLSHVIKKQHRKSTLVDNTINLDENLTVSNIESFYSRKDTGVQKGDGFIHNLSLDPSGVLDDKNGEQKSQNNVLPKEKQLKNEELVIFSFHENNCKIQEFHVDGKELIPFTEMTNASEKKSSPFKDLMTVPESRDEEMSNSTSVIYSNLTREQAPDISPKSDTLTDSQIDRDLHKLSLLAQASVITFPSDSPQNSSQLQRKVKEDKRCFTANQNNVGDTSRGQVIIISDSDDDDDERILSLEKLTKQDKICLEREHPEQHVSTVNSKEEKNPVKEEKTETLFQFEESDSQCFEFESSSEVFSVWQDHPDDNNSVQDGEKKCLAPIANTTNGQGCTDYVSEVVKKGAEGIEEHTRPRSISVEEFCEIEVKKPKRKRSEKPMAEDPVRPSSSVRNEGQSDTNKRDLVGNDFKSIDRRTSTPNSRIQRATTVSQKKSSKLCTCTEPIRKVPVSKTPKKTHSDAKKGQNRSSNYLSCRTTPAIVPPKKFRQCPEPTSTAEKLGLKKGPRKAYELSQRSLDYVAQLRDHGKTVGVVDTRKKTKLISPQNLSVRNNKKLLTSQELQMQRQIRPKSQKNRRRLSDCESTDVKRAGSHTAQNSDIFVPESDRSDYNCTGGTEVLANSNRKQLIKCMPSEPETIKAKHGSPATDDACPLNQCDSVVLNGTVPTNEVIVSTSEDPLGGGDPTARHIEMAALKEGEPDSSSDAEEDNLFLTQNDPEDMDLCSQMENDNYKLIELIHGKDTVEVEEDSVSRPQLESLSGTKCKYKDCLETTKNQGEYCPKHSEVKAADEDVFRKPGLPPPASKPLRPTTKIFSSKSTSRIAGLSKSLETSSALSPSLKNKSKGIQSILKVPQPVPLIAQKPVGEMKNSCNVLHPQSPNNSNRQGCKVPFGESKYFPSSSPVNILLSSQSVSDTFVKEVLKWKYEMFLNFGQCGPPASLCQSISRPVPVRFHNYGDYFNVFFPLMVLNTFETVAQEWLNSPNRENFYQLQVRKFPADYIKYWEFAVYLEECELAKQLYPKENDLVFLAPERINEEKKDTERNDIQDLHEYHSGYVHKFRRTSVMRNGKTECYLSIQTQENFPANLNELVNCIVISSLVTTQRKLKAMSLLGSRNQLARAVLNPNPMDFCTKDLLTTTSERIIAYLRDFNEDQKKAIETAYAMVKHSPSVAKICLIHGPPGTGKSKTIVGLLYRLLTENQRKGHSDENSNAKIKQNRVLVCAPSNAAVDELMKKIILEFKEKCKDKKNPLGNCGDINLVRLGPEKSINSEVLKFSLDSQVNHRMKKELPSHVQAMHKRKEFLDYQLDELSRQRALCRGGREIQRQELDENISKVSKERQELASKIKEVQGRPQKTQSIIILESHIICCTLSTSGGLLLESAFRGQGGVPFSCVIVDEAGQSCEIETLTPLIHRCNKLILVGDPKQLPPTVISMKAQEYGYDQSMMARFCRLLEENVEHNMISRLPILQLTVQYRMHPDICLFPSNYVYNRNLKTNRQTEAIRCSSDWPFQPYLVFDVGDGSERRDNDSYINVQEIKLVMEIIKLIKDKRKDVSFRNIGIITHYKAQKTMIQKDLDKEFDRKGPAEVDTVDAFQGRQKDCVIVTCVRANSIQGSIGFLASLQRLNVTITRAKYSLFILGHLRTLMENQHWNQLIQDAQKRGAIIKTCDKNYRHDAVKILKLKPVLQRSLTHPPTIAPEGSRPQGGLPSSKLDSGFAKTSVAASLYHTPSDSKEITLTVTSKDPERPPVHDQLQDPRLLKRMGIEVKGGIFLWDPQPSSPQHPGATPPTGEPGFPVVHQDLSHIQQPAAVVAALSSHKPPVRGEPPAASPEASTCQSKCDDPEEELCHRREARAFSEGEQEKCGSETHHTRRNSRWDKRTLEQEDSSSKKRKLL
UniProt Q92841: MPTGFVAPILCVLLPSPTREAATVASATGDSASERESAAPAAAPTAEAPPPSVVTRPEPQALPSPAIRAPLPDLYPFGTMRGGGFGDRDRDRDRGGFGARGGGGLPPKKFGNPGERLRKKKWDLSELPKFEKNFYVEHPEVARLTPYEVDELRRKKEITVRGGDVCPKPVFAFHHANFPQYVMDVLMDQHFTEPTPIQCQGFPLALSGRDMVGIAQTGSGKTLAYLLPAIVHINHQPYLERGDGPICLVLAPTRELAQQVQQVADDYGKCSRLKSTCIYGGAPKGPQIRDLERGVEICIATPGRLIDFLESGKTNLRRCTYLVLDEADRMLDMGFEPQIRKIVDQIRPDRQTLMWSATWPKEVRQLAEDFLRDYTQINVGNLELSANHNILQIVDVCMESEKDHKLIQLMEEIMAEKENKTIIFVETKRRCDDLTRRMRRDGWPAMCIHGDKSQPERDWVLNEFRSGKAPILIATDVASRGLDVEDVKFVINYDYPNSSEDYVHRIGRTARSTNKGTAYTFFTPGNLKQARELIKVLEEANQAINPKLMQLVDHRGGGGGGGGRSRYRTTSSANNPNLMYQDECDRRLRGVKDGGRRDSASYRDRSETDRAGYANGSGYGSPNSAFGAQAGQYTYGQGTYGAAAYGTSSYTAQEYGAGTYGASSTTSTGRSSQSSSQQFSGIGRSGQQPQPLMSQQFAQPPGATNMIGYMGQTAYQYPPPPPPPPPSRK

Biological target: Senataxin (SETX) (human (endogenous in HEK293 and U2OS)) (UniProt Q7Z333)
Assay: co-IP; endogenous SETX immunoprecipitated with rabbit polyclonal anti-SETX antibody from HEK293 cell extracts (untreated/DMSO or 100 nM CPT for 1 h), extracts treated with benzonase; IP lysis buffer 50 mM Tris-HCl pH 7.4, 150 mM NaCl, 1% NP-40, 0.2% Triton X-100; 4°C; western blot for DDX17; rabbit IgG as control

In the case of “DDX17 isoform p82 (from UniProt Q92841 1-729)”, the binding was “binds”.
